Measured values from US20090181009A1 (ARCA BIOPHARMA, published 2009).
Results are given in words; binding and its absence hold for the method and conditions named. Some results given as binding are weak or reduced against the parent protein; the word gives no strength.

Target: NTB-A extracellular domain fused to a C-terminal tag of V5-His (NTB-A-ECD-V5His) (human)
Experiment: SPR (BIAcore), mAb captured by anti-mouse mAb, antigen from 46 nM in 3-fold dilutions, 25 C [D]

B1: anti-NTB-A monoclonal antibody 994.1 (antibody, mouse IgG2b, V domains shown)
VH: QIQLVQSGPDLKNPGKTVKISCKASGYTFTNFGMNWVKQSPERGLKWMGWINTYNGKPTYADDFKGQFAFSLETSATTAYLQINNLKNEDTAAYFCAKRGGTVDFGYWGQGTTLTVSS
VL: EVVLTQSPTTMAASPGEKITVTCSASSPISSNFLHWYQQKPGFSPKLFIYRTSILASGVPARFSGSGSGTSFSLTIGAMEAEDVAAYYCQQGIYMPLTFGAGTKLELKR
notes: Murine IgG2b from a hybridoma; also called ATCC Deposit No. PTA-7831
B1 was tested, and the binding was “binds”.
